± gives the half width of the 95% confidence interval. The two proteases of the assay disagree for many of these sequences.
Key:
[1] = folding stability dG unfold (combined trypsin and chymotrypsin); higher = more stable
Method in brief: (§1)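 Unfolding free energy was derived, per protease or combined, by relating Bayesian-fitted K50 values from sequencing counts to a sequence-predicted unfolded-state K50 and a shared folded-state K50. The underlying digests exposed cysteine-free mini-proteins under 80 residues, in a PA-tagged cDNA display construct, to trypsin and chymotrypsin at 11 threefold-diluted concentrations and to a no-protease condition. A filter kept only designs with AlphaFold2 dimer inter-PAE above 15.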

[2] = folding stability dG unfold from trypsin proteolysis; higher = more stable
Method in brief: as §1

[3] = folding stability dG unfold from chymotrypsin proteolysis; higher = more stable
Method in brief: as §1

Row | Sequence | folding stability dG unfold [1] [kcal/mol] | folding stability dG unfold [2] [kcal/mol] | folding stability dG unfold [3] [kcal/mol]
1 | SAGGSAGGSKLKIPIIRKFKPDEPLPTAEDVKAILEELGLDIKEVKVTYFPEYGYAIAEVEVSSAGGSAGGS [r12_1052_TrMRF] | 1.41 ± 0.067 | 1.57 ± 0.033 | 1.24 ± 0.039
2 | SARRTLTLELELEFEFEGLGLRVRVRVELRLELVDGELRLELRVEIEVEPLPPPPPPLTPEQLRELARRSAG [r14_435_TrROS_Hall] | 2.51 ± 0.38 | 0.713 ± 0.2 | 2.87 ± 0.13
3 | SAGGSAGGSAGYFLAEFEIKIKFRNPDNGQWMDMTIRIPVYIVPPKPTPKRDPNGDWKPDSAGGSAGGSAGG [r11_307_TrROS] | 3.41 ± 0.24 | 1.47 ± 0.098 | 3.99 ± 0.13
4 | SAGGLPGLSAEELARRLAERLREALAAAGYTVEIELTVEITVTDEDGRTRTFTFTLRIRVEPPPPPPSAGGS [r16_550_TrROS_Hall] | 4.8 ± 0.12 | 4.05 ± 0.069 | 5.15 ± 0.074
5 | KTITIVVKVPSLEEVEALAAELAKELNLPPGAKVEVKVEYDEETGYVVVTVTVTNPNGEKIEIKIVVELPDS [r1_84_TrROS_Hall] | 3.08 ± 0.22 | 1.86 ± 0.1 | 3.72 ± 0.38
6 | SAMIEIEVGGKKITITYNKETNEYTITIYDKKTGKKVTITIPKENKNLTLEEILKKIKEAIKEGKKVKISAG [r14_157_TrROS_Hall] | 4.62 ± 0.23 | 1.75 ± 0.058 | 5.04 ± 0.12
7 | SAGGSAMVTVEIKFPDGSTKTITYPVPSSLSPEEVRAVAEEIAKELAEKEGKPGLPVEVVKITFEPSAGGSA [r15_463_JUSTAS] | 3.13 ± 0.11 | 4.02 ± 0.14 | 1.38 ± 0.02
8 | SAGGSAKARVLDPHPTSSIVRIEFPGSGEVVEIPFTGTIGELEKYIRDLAEKYNFPIEVEISPPSESAGGSA [r2_161_TrMRF] | 1.8 ± 0.1 | -0.564 ± 0.38 | 2.16 ± 0.039
9 | SNPVLSVGRLEDAIVLAVFDPEAGTVHVLAINPDTGALAFATAKVKKIDPETGVIEVDFTVNAHPDAKVLPS [r1_234_TrMRF] | 3.11 ± 0.095 | 1.44 ± 0.045 | 3.74 ± 0.084
10 | SAGGSAGGSAGGAPKGAPVFFHVIRKEKKVTLEKTPDGELKETIEEKITVELFTLLAPESAGGSAGGSAGGS [r10_297_TrMRF] | 3.46 ± 0.19 | 1.86 ± 0.083 | 4.23 ± 0.13
11 | SAGGSAGGSAGGSVSIAREALEEKGEPVVIRVRNADGEEEDVVLPDDPEDIPGKEVVEVSSAGGSAGGSAGG [r7_998_TrMRF] | 1.34 ± 0.049 | -0.381 ± 0.13 | 1.78 ± 0.03
12 | SAGGSAGGSAMLVVTVPPSVEATVTITLSDGSVLTYTLPPDATLTIDSETFKNVKPVTVTRSSAGGSAGGSA [r18_210_JUSTAS] | 0.938 ± 0.17 | -0.206 ± 0.37 | 1.8 ± 0.18
13 | SAGGSGMMLEEGVGVDPTTGELHRFTYLREPERPPVEVTVTTTTVVYTTPDGTTVTVTTTTTLEGGSAGGSA [r2_326_JUSTAS] | 0.789 ± 0.13 | 0.671 ± 0.047 | 0.786 ± 0.27
14 | SAGGSAEIEITVTVPPEMTEEEIKEQLEAELQRLTGEKVEIVDIRVEEVNGELTVTVKIKIEPAPPSAGGSA [r15_105_TrROS_Hall] | 2.85 ± 0.3 | 3.04 ± 0.28 | 2.71 ± 0.2
15 | SMKIEITPNGITITLSKEEIEKLIEELKKAGYEVKITDIEYDEETDEITVKIEIRPKPPAKEKVVLPEKKSA [r9_448_TrROS_Hall] | 1.23 ± 0.13 | -1.26 ± 0.43 | 1.72 ± 0.095
16 | SAGGSAGGSAGGKKKVKKKTFELELLVRDKETKEWYKIKMRFTVNENGELKAELEIEKISAGGSAGGSAGGS [r10_617_TrROS_Hall] | 4.37 ± 0.2 | 2.49 ± 0.11 | 4.62 ± 0.14
17 | SAGGSAGGSAGGKLTLDKNGNLTVTKEAKVTVETEETETETTTTTTTTTTTTTTLPEGLSAGGSAGGSAGGS [r10_383_TrROS_Hall] | 0.829 ± 0.19 | -1.2 ± 0.48 | 1.23 ± 0.073
18 | SAGGSAGGSAGGDPMKIVPIWIKFTITIPPDSPIMEKLGIDPEDVKIEFEFWMWVIVPDSAGGSAGGSAGGS [r10_82_TrROS] | 4.6 ± 0.22 | 3.07 ± 0.12 | 5.18 ± 0.24
19 | SAGGYIPASARIEVLEVFEDGTVRVRVTYPDGSEAEVVARLVRTADGRVYLEIFDPRTGRLLATLELTSAGG [r13_527_TrMRF] | 3.88 ± 0.092 | 4.09 ± 0.09 | 3.81 ± 0.054
20 | SAGGSAGGSAGEVTLTEETRPLPDGTPVRVTTTEVIPEVGTTVTTVTYPGDETRTETIALSAGGSAGGSAGG [r11_742_JUSTAS] | 0.685 ± 0.029 | 1.39 ± 0.043 | -1.29 ± 0.11
21 | SAGGSGMTTTFSKEVSSKEEAEKIFKRGFPDLNAKVTKFDPKKGTVEIELTFPDGKKSKATAPIKKSAGGSA [r2_201_JUSTAS] | -0.225 ± 0.37 | -0.569 ± 0.58 | 0.0996 ± 0.5

Row | Sequence | folding stability dG unfold [1] [kcal/mol] | folding stability dG unfold [2] [kcal/mol] | folding stability dG unfold [3] [kcal/mol]
22 | SAGGSAGGMTVTLPLDEIEALAKAGLIEEVRIERDENGLLRVTLRVRPPPPLSAEQLAELRKKASAGGSAGG [r6_278_TrROS_Hall] | 2.1 ± 0.33 | 1.26 ± 0.083 | 3.6 ± 0.21
23 | SAGGGWFPITFEFLFRMKFNGHWMWMLMEITIFIPIPPPPPTIPIPPDQAKKIEWDPNNGKYYVEPGSAGGS [r8_28_TrROS] | 2.95 ± 0.3 | 1.62 ± 0.11 | 3.62 ± 0.067
24 | SAGGSAGGSAGGSVIEVKDPNGKKYIIIKTPDPNVYPVTVIPPDGTTTVTPVSDYSKLLSSAGGSAGGSAGG [r7_769_JUSTAS] | -0.527 ± 0.42 | -0.893 ± 0.4 | -0.464 ± 0.56
25 | SDADIKVQVFGNFIMIQIYPGAKIKIKIKMPGKKHEHEVKVPPGEPTTIMIPLPPGMPPDWKIEDIEIKGSA [r9_1152_TrROS] | 3 ± 0.62 | 1.27 ± 0.1 | 4.43 ± 0.33
26 | SAGGSAKKEVKVEIVSITYNPETGVIEIEIKADKPVDKIEITLPDGSKITFELLPDGKTIRMTIEPSAGGSA [r15_736_TrROS_Hall] | 3.07 ± 0.24 | 1.47 ± 0.14 | 3.53 ± 0.17
27 | SAGGSAGGSAEKEYYVAKVEYDPATGKYYAYIYRKDGKYVVKVEWDDPEKPEEAVKKAIEEKSAGGSAGGSA [r18_479_TrMRF] | 4.51 ± 0.18 | 1.52 ± 0.069 | 4.77 ± 0.18
28 | SAGGSAGGSAGPKTIVLPTPGGDAEKIVEAALDVVEAFPGLKDKEVDVDAGDDGVITITASAGGSAGGSAGG [r17_324_TrMRF] | 1.1 ± 0.12 | -0.569 ± 0.24 | 1.65 ± 0.074
29 | SAGGSAGGSAGGKPHEIKITSFEMFFLPDGWIIMRMTFTFPNPNTITMLMIFPLPDGAPSAGGSAGGSAGGS [r10_1206_TrROS] | 4.37 ± 0.19 | 1.24 ± 0.14 | 4.76 ± 0.12
30 | SYAFMIEVEYPDNGQEHTIPIPPDTLTIEINFKGPHEFRVEISWFDNGDIREQEREVTIPPPPPPPEDNKSA [r9_1067_TrROS] | 3.51 ± 0.24 | 1.78 ± 0.22 | 4.43 ± 0.2
31 | SAGEVELKIVLPKEEIEKILEALRKLAEEAGLEVEVEKIEKKEDGYYVITVTVKFKETEKEIKIEIIIPSAG [r5_41_TrROS_Hall] | 2.69 ± 0.31 | 3 ± 0.51 | 2.55 ± 0.12
32 | SKLVEKLAKELNIKKVEVLPDGTVKFTTKDGYVIKITIEKVEVVKKPDGKVIKKYKIKIEIKPLPPPEELSA [r9_648_TrROS_Hall] | 4.27 ± 0.48 | 2.73 ± 0.14 | 4.98 ± 0.1
33 | SAGGSAGMTPVSEAVVPGPNVTTLTTYRDPSSSALITPVTTTPPDGVPVTTTTLDLGSSTVTLSTTSAGGSA [r15_993_JUSTAS] | 0.97 ± 0.082 | 1.06 ± 0.053 | 0.583 ± 0.21
34 | SAGGMRLVIELEMTEEEARRLAEELARELAEELGLEVVRVEVRYDPETRRVTIVVEIRPAPPPPPPEESAGG [r13_669_TrROS_Hall] | 3.47 ± 0.22 | 4.09 ± 0.25 | 2.08 ± 0.16
35 | SAGGSAGGSAGGPILKITLELSPEEIEELAKALGLKVKKVEKEKNKDGKLRVTIYIELKSAGGSAGGSAGGS [r10_999_TrROS_Hall] | 2.81 ± 0.078 | 2.12 ± 0.085 | 3.24 ± 0.057
36 | SAGGSAGGSAGGSNWVMVTVEFEMTVYKMDPNGGWEPETMTIKVTAMLPPGQPLEEFIDSAGGSAGGSAGGS [r4_126_TrROS] | 4.32 ± 0.42 | 2.29 ± 0.14 | 4.77 ± 0.19
37 | SAGGMADEELANMSLEEVIAAVKEAGAKTVTVTFPDGSTLTIDLGDDGVVTVTLTTPPGEKETFEIPSAGGS [r8_51_TrMRF] | 2.59 ± 0.11 | 2.34 ± 0.17 | 2.73 ± 0.088
38 | SAGGSAGGSAGSVTVSSTTTTLTDSMRVITETFTSPDLVKVTFVPTSNPEDVTVTTLPSASAGGSAGGSAGG [r11_1046_JUSTAS] | 0.643 ± 0.092 | -0.417 ± 0.093 | 1.04 ± 0.026
39 | SAGGSAGGSAMPENMKVIEIEINGKKYKIVESKDGKLYIFEYDKKTKKVEVRTITLEELLSLSAGGSAGGSA [r18_247_TrROS_Hall] | 4.2 ± 0.2 | 2.21 ± 0.082 | 4.66 ± 0.12
40 | SAGGSAGGSAGGAPPPVEIEIEVVVRGPDGRLYAFRARATYDPETDELTIEIEVRELPPSAGGSAGGSAGGS [r10_1164_TrROS_Hall] | 3.96 ± 0.22 | 2.25 ± 0.1 | 4.34 ± 0.17
41 | SKVEIVEVKKNKNKPNVYEFKIKVDGKEYTIKITKDKKTNKFIVEIEVNGKKYTFEFKSLEDALKALKKLSA [r9_366_TrROS_Hall] | 5.35 ± 0.37 | 2.46 ± 0.12 | 5.72 ± 0.13

Full records, quoted from the list:
SAGGSAGGSAGSVTVSSTTTTLTDSMRVITETFTSPDLVKVTFVPTSNPEDVTVTTLPSASAGGSAGGSAGG [r11_1046_JUSTAS] as listed: folding stability dG unfold [1] [kcal/mol] = 0.643 ± 0.092; folding stability dG unfold [2] [kcal/mol] = -0.417 ± 0.093; folding stability dG unfold [3] [kcal/mol] = 1.04 ± 0.026
SAGGSAGGSAGPKTIVLPTPGGDAEKIVEAALDVVEAFPGLKDKEVDVDAGDDGVITITASAGGSAGGSAGG [r17_324_TrMRF] as listed: folding stability dG unfold [1] [kcal/mol] = 1.1 ± 0.12; folding stability dG unfold [2] [kcal/mol] = -0.569 ± 0.24; folding stability dG unfold [3] [kcal/mol] = 1.65 ± 0.074
SYAFMIEVEYPDNGQEHTIPIPPDTLTIEINFKGPHEFRVEISWFDNGDIREQEREVTIPPPPPPPEDNKSA [r9_1067_TrROS] as listed: folding stability dG unfold [1] [kcal/mol] = 3.51 ± 0.24; folding stability dG unfold [2] [kcal/mol] = 1.78 ± 0.22; folding stability dG unfold [3] [kcal/mol] = 4.43 ± 0.2

Source: the supplement of paper PMC12764529
